Experimental data reported in patent publication US4305852A (American Home Products Corporation, priority 1980, dated 1981).

Experiment: general procedure: Boc solid-phase peptide synthesis; benzhydrylamine polystyrene resin; DIC/HOBT
Conditions: whole synthesis, HPLC μ Bondapak C18, triacetate

L-arginyl-L-lysyl-L-aspartyl-L-valyl-D-alaninamide triacetate
final HPLC purity: 98%
